The values below come from US20070148684A1, “IMMUNOASSAY FOR HIV PROTEASE INHIBITORS” (priority 2000, published 2007).

The test system of the data set is saquinavir antiserum. In words: Assay performance with serum milieu: saquinavir ELISA in 50% human serum. It counts as binding, sheep. The following applies: final assay in 50% human serum. How it is done: An ELISA plate was coated with the above concentrations of saquinavir-BSA using the same conditions as set forth above. While the plates were being PostCoated, serial three-fold dilutions of saquinavir, ritonavir, indinavir, and nelfinavir were prepared in a 1 ml capacity 96-well plate. All drugs were prepared at 1 mg/ml in absolute methanol and stored at 4° C. until used. Briefly, 1 μl of each drug was transferred to wells of the first row of the plate, which contained 500 μl of PBS-TWEEN in each well of the first row and 200 μl of the same buffer in all other wells of those columns. After mixing, 100 μl from the first row of each of the four columns was transferred to the second row and mixed. This was repeated across each row until the seventh row was completed. The eighth row contained only buffer, this was the zero concentration of each drug. Upon completion of the PostCoat incubation, the coated plate was washed and 50 μl of solution was transferred from row H of the dilution plate to row H of the coated plate; this was repeated from row G to row A using a micropipettor equipped with 4 tips. Upon completion of this, 50 μl of saquinavir antiserum, diluted 1:12,800 in PBS-TWEEN, was added to each well of the coated plate. The plate was incubated as above. […] The drug evaluated was saquinavir, and the drug diluent was 100% normal human serum. […]
In general terms: An ELISA detects its analyte on a solid surface through an enzyme-linked reagent.

Turning to `CC(C)(C)NC(=O)[C@@H]1C[C@@H]2CCCC[C@@H]2CN1C[C@@H](O)[C@H](Cc1ccccc1)NC(=O)[C@H](CC(N)=O)NC(=O)c1ccc2ccccc2n1` [saquinavir], the “range of the assay” value (FIG. 2) is given as “from less than a nanogram to 1 microgram per milliliter”. Moreover, the lowest detectable level (estimated from dose response curve FIG. 2) was 0.5 ng/mL.
